{"source": "PubChem BioAssay AID1347423", "about": "(Functional Genomics Laboratory (NCATS/FGL), 2020)", "note": "Among all 52,000 sequences or so, about 210 (0.4%) were called active.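 Rule for the calls: active = gene whose silencing raises cell survival under the drug, median off-target-corrected z-score across its silencing RNAs 2 or more; inactive = the rest.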 The list shows a part of the results.", "data": [{"test": "Resistance to Poly (ADP-Ribose) Polymerase inhibitor: Gene Identification via Genome-wide siRNA Screen", "conditions": "mouse BRCA2 R2336H ES cells, olaparib, CellTiter-Glo viability; hits give high values", "summary_of_the_method": "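Genome-wide siRNA screen (3 siRNAs/gene, 20 nM) in mouse ES cells carrying hypomorphic BRCA2 R2336H; olaparib 500 nM added 48 h post-transfection, CellTiter-Glo viability 72 h later. Normalized to plate-median negative control; MAD z-scores, gene median, seed-adjusted.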", "values": [{"sequence": "GGAGUUCUUCACGCGUAACTT against G6pd2", "z-score": "inactive: 0.52"}, {"sequence": "GGGUAUAACAAGACUACAATT against Dctn3", "z-score": "inactive: -2.76"}, {"sequence": "CCUGAGAUUUCCUAACAUCTT against B930067F20Rik", "z-score": "inactive: 0.731"}, {"sequence": "CGGAAUAAUCUUGUCUCCGTT against Alox12e", "z-score": "inactive: 0.0251"}, {"sequence": "GGGUUCUGGUGGCUAAGUUTT against 5730507A09Rik", "z-score": "inactive: -1.69"}, {"sequence": "GGCUCAUCAUUUACUUAAUTT against Slc22a3", "z-score": "inactive: -0.156"}, {"sequence": "GCACCUUCAGCUAUCUAACTT against 5730521E12Rik", "z-score": "inactive: 0.513"}, {"sequence": "GGAGACCUUUUUGAACCUGTT against Zfp472", "z-score": "inactive: 0.0171"}, {"sequence": "GGUGAAGCUUGAGAUACUATT against Gcnt1", "z-score": "inactive: -0.464"}, {"sequence": "GGAGAUGACCAAGUGGAAUTT against Pitpnm1", "z-score": "inactive: 1.1"}, {"sequence": "GGGUAACAACCAUGUCCGUTT against Pspn", "z-score": "inactive: 2.48"}, {"sequence": "CCGUCUUCAAGACAGAUGCTT against 2410018G20Rik", "z-score": "inactive: 0.446"}, {"sequence": "GGGUGUCGAUUAUAACAGATT against Hnf4a", "z-score": "inactive: -1.42"}, {"sequence": "CCGGAGGUUCCAACAAACUTT against Dlx1", "z-score": "inactive: 2.32"}, {"sequence": "GGCCUAGUUCCAGUUAUGCTT against Olfr1093", "z-score": "inactive: 1.04"}, {"sequence": "GGAGUCAUGAAGACCAAUUTT against 1700018C11Rik", "z-score": "inactive: 0.368"}, {"sequence": "GGAGCUAUGCAUCAUUAAUTT against Srp14", "z-score": "inactive: 1.4"}, {"sequence": "CGCGUACGACUUCUACAAATT against Hmgcs2", "z-score": "inactive: 0.614"}, {"sequence": "GGGUUUCUUACUGAAGAAATT against B230380D07Rik", "z-score": "inactive: 0.724"}, {"sequence": "GGUCUUUCAAGAGUUGAAATT against 2810405J04Rik", "z-score": "inactive: -0.157"}, {"sequence": "GGCUCAGGACUUUGUCUACTT against Lhx4", "z-score": "inactive: 0.346"}, {"sequence": "CGGAUGCAAUCUGACCAGATT against Ubie", "z-score": "inactive: 0.745"}, {"sequence": "CGAAUGCACAUCGUUACUGTT against Fbln2", "z-score": "inactive: -0.375"}, {"sequence": "GCCGUAGUAGACAAUCAUGTT against Ankrd28", "z-score": "inactive: -0.00211"}, {"sequence": "GCUCAAUGCUACUAUAGACTT against Lif", "z-score": "inactive: -0.453"}, {"sequence": "GGGUUCUUUCUGAGAGAAATT against Tnfrsf1a", "z-score": "inactive: -0.99"}, {"sequence": "GGAAGUCCACAAAUGAAGGTT against C130057E09Rik", "z-score": "inactive: -0.025"}, {"sequence": "GGAUAGCAUGCUUCCUGAGTT against Rhbdl6", "z-score": "inactive: -1.02"}, {"sequence": "GGAAUCAACAAGGUUAUCATT against BC038479", "z-score": "inactive: 1.37"}, {"sequence": "GGAACAGAUGAAACCAUUATT against Psmc1", "z-score": "inactive: -2.73"}, {"sequence": "CCAAUUGAUGUCAACAAGUTT against Atp7b", "z-score": "inactive: -0.254"}, {"sequence": "CGGUUGAUGGAAAAAUACATT against Ppef2", "z-score": "inactive: -1.39"}, {"sequence": "CGGGAAAUAAUUUUUGGUUTT against Snx4", "z-score": "inactive: 0.62"}, {"sequence": "GGAAUUGGUUUCAUUCAUCTT against Impdh1", "z-score": "inactive: -0.623"}, {"sequence": "GCUUGGGUAAUAGAAAUCATT against Gm316", "z-score": "inactive: 1.21"}, {"sequence": "GGGAGCAUUGGCCAGAGUUTT against MOR135-11", "z-score": "inactive: -0.0207"}, {"sequence": "GCAACGUGUCUUUUCAAACTT against A630033H20Rik", "z-score": "inactive: 0.12"}, {"sequence": "GGUACCUGAGUCCAUCUCATT against Sntb1", "z-score": "inactive: 0.0675"}, {"sequence": "GGAAAACAUGGAGAAGAAATT against Lars", "z-score": "inactive: -0.799"}, {"sequence": "CCUUGCUACUCUGAUAACGTT against Tmeff1", "z-score": "inactive: -0.647"}, {"sequence": "GGAUUAUCCCGACUAUAUGTT against 2610025M23Rik", "z-score": "inactive: -0.188"}, {"sequence": "GGGAGUGAUUCAACAUUACTT against Galk1", "z-score": "inactive: -0.355"}, {"sequence": "GCAACGAGUCUACGUCAUCTT against Pex14", "z-score": "inactive: -0.0319"}, {"sequence": "GGUACUAAAGUCAUGUUUGTT against Art2b", "z-score": "inactive: 0.213"}, {"sequence": "GCGAGUCCUGCCUAUCGAUTT against Pnmt", "z-score": "inactive: 0.713"}, {"sequence": "GGGCUACAUGAAAAUUCUGTT against Aicda", "z-score": "inactive: -0.873"}, {"sequence": "GCGAGUACUUACUCUUCGUTT against Rpl3", "z-score": "inactive: -2.63"}, {"sequence": "GGAGAUUCGCAUGCUCAUCTT against A130096K20", "z-score": "inactive: 0.0834"}, {"sequence": "GCUAGAUGAACGAGCGAACTT against Slc25a1", "z-score": "inactive: 0.0564"}, {"sequence": "GCUGAAAUAUGUGAGAGCATT against Sdcbp", "z-score": "inactive: 0.413"}, {"sequence": "CCAAACAGGCUUUUUUCCUTT against 4631426E05Rik", "z-score": "inactive: 0.245"}, {"sequence": "CCUUAGGUACUCUAAGGAATT against D1Pas1", "z-score": "inactive: 0.23"}, {"sequence": "GGUAAACUAGACACGAAGCTT against Fgf23", "z-score": "inactive: 0.495"}, {"sequence": "GGAAAAUGGCAGAAAUGAATT against Vps26", "z-score": "inactive: -0.838"}, {"sequence": "CGGAAUUUCCACAGCUGUATT against Mir16", "z-score": "inactive: -2.07"}, {"sequence": "GCACUUCAAUCCAGUGUCUTT against Pdgfd", "z-score": "inactive: 3.74"}, {"sequence": "GCCAACCUGUACGAAAAAGTT against AI449175", "z-score": "inactive: -0.922"}, {"sequence": "CCUUUUACCAAAACACACATT against Zfp148", "z-score": "inactive: 0.583"}, {"sequence": "GGUGUUUGCAUUGUACAGGTT against Zfp598", "z-score": "inactive: 0.8"}, {"sequence": "GGCCGAAGUCCAAAAUCUCTT against Ranbp9", "z-score": "inactive: 0.591"}, {"sequence": "CCUAGAUUCUGAAUUCGAATT against Pdzk8", "z-score": "inactive: -0.107"}, {"sequence": "CGACCUCACAGUUGACUACTT against BC052066", "z-score": "inactive: -1.28"}, {"sequence": "GGAAUACUGCAGUGGCAUCTT against Olfr850", "z-score": "inactive: 1.32"}, {"sequence": "CGAAAAAGGGCUUUUAACUTT against Ndufs1", "z-score": "inactive: 1.04"}, {"sequence": "GGGCUCGUAAAGAAAGAAGTT against Tsga14", "z-score": "inactive: -1.02"}, {"sequence": "GGACUGUGACAUAUUCUUUTT against Zfp54", "z-score": "inactive: 1.02"}, {"sequence": "GGAGGUGACUGUUCUUAGATT against Ccdc5", "z-score": "inactive: -0.81"}, {"sequence": "CGCUAUUUACCAGAGUGGGTT against Statip1", "z-score": "inactive: -1.04"}, {"sequence": "CCCUAAUGUGUAAAUGCAATT against D3Ucla1", "z-score": "inactive: -0.0426"}, {"sequence": "CCGGCACUGCUUUUCUACUTT against Ltb4r2", "z-score": "inactive: 0.676"}, {"sequence": "GGUGCAAAGGAUAACUCGGTT against Tfpt", "z-score": "inactive: 0.366"}, {"sequence": "GGUCAUAUCAUUAGGUCUATT against Rod1", "z-score": "inactive: 0.09"}, {"sequence": "GCUAGGUUGGAUAUAUAUGTT against 1110056A04Rik", "z-score": "inactive: -2.09"}, {"sequence": "GGUGUUCUGGGAAAUUAAATT against Cdca7", "z-score": "inactive: -0.111"}, {"sequence": "CCAUUAUGAAGAAGCUGUUTT against BC003324", "z-score": "inactive: -0.0139"}, {"sequence": "GUUCCCUACAAGUUCUUCCTT against Phox2a", "z-score": "inactive: 1.18"}, {"sequence": "GGACUUGAAGUAAAGUAUATT against Egfl5", "z-score": "inactive: 0.792"}, {"sequence": "GGAACAAAGUGUUUAAAACTT against Ptprj", "z-score": "inactive: 0.744"}, {"sequence": "CCAUUUCUAUUAACCACAATT against AU020939", "z-score": "inactive: -0.712"}, {"sequence": "GAAGAUGUACAGAUUUUCCTT against Tomm22", "z-score": "inactive: -0.305"}, {"sequence": "GGUGCUGAUCUUGAACUACTT against Slc22a6", "z-score": "inactive: 1.81"}, {"sequence": "GGCACUCCUCAAUAUAGAUTT against Elf1", "z-score": "inactive: 0.275"}, {"sequence": "GGAGAGACGCGCUAUUAUATT against Bub1b", "z-score": "inactive: 0.786"}, {"sequence": "AUUUCUGUAAGGCAAAUGUTT against Olfr970", "z-score": "inactive: 0.643"}, {"sequence": "GGACUAAAUAGGUUUACCATT against Cart1", "z-score": "inactive: -0.668"}, {"sequence": "GGAUGUCCUGGAAUAUGUGTT against Mrpl45", "z-score": "inactive: 0.656"}, {"sequence": "CCACAUUUCUAGUUGUUUATT against Olfr1151", "z-score": "inactive: -0.538"}, {"sequence": "GGAAAAAAUCAGGAGAUCUTT against Fbxo34", "z-score": "inactive: 1.85"}, {"sequence": "GGUUAAGACCUUAAACAGATT against Prlpa", "z-score": "inactive: -0.587"}, {"sequence": "GCUACAGGAUAAGUCCAAUTT against Kpnb1", "z-score": "inactive: -2.94"}, {"sequence": "GGUUCAAACAGAGACUCCATT against 2210009G21Rik", "z-score": "inactive: -0.256"}, {"sequence": "GACUGAAACACUCAAAGCCTT against 4930503B16Rik", "z-score": "inactive: 0.306"}, {"sequence": "GGGAGAAAUCCAGAGGAGATT against Clecsf12", "z-score": "inactive: 0.322"}, {"sequence": "GGAGGUUAUACCAACCUUUTT against Mcm4", "z-score": "inactive: -1.49"}, {"sequence": "CCAUGUGCUGUGCACUACGTT against D4st1", "z-score": "inactive: 1.84"}, {"sequence": "CAUCCCGCAUUCCAGUUACTT against Rgs3", "z-score": "inactive: -1.11"}, {"sequence": "GGUGUUAAUGAGGACACUUTT against Slc25a22", "z-score": "inactive: 1.94"}, {"sequence": "CCACCUACCAAAGCAGAAGTT against 1700001M19Rik", "z-score": "inactive: 0.616"}, {"sequence": "GGCUGACAAUGUUAAAAGUTT against 8430423A01Rik", "z-score": "inactive: 0.372"}, {"sequence": "CGAUUAUGACCUGAUCAUATT against Serpinb13", "z-score": "inactive: -0.55"}, {"sequence": "CGGCACCUUCUACACAUCATT against Sirt2", "z-score": "inactive: -1.15"}, {"sequence": "GCAAAUCAUACCUACCGGCTT against Cuzd1", "z-score": "inactive: 0.388"}, {"sequence": "GGAAGUGUUUGAUGUUCUUTT against Gtf2ird1", "z-score": "inactive: -0.0573"}, {"sequence": "GAAAUCAUCCUGCCCAAAGTT against Vax1", "z-score": "inactive: 0.607"}]}]}
